# Laboratory results published in PubChem BioAssay AID1347076 (National Center for Advancing Translational Sciences (NCATS), 2019).
# Screen size: about 400,000 compounds; about 13,000 (3.2%) were called active. The shares of active, inactive and inconclusive entries below differ from those in the screen. Calls follow the shape of the dose curve; as a rule, active = well fitted cell-killing curve with a large enough effect; inconclusive = small, poorly fitted or top-dose-only effect, or effect the other way; inactive = flat fitted curve, though single readings scatter. Where the call is inconclusive, the potency comes from a doubtful curve fit.
# Assay: qHTS assay for MDR1-selective chemotherapeutics: Primary screen using the drug-selected MDR subline cells KB-V1; also: nearly all actives have a fitted effect of over 60% in size
# Conditions: KB-V1 MDR cells viability, CellTiter-Glo, 72 h; activity change, negative = cytotoxicity: at 46.1 µM (top of the series)
# Method in brief: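 KB-V1 cells (P-gp-expressing MDR subline of KB-3-1) in phenol-red-free DMEM with 10% FBS were exposed to library compounds over a concentration series for 72 h at 37 degrees C. Viability read by CellTiter-Glo luminescence; concentration-effect curves fitted after normalization.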
# % is scaled to controls: 0 for no effect and ±100 for the full control effect; potency is read from the fitted curve at half-maximal effect.
SMILES,Potency,"activity change, negative = cytotoxicity"
Cc1[nH]n(C(N)=S)c(=O)c1N=Nc1ccc(S(=O)(=O)N2CCCCCC2)cc1,"inconclusive: 20.6 µM [cytotoxic, single point]",–
COc1cc(S(=O)(=O)NC(Cc2c[nH]c3ccccc23)C(=O)O)ccc1NC(C)=O (centres undefined),"inconclusive: 4.61 µM [rising, partial curve, poor fit]",–
CCCCn1[nH]c(-c2ccccc2)cc1=O,–,inactive: 2.87%
CCN(CC)c1ccc(O)c(C=Nc2ccc(C)c(C)c2)c1,"inconclusive: 18.4 µM [rising, single point]",–
COc1cccc(/C=N/NC(=O)CSc2ccccc2C)c1OC,"inconclusive: 14.6 µM [cytotoxic, single point]",–
O=C(Nc1ccc(S(=O)(=O)NCc2cccnc2)cc1)c1ccccc1Cl,–,inactive: 8.71%
O=C(O)c1ccc(-c2ccc(/C=N/Nc3ccc([N+](=O)[O-])cc3)o2)cc1,–,inactive: 21.7%
CCCCN(C(=O)c1c(CC)noc1C)c1c(N)n(CCC)c(=O)[nH]c1=O,–,inactive: 5.1%
COc1ccc(S(=O)(=O)NCCC(=O)Nc2ccc(C)cc2)cc1,"inconclusive: 18.4 µM [cytotoxic, single point]",–
CCCCn1c(N)c(N(CCOC)C(=O)COC(=O)COc2ccccc2C#N)c(=O)[nH]c1=O,"inconclusive: 29.1 µM [rising, single point]",–
CCc1ccc(C2C(C(=O)Nc3ccc(Cl)cc3)=C(C)Nc3ncnn32)cc1 (centres undefined),–,inactive: 3.35%
COc1cccc(-c2nc3c(c(C)nn3-c3ccccc3)c3cc(OC)c(OC)cc23)c1,–,inactive: 2.21%
COc1ccc(NS(=O)(=O)c2ccc(N3CCOCC3)c(NC(=O)c3ccccc3Cl)c2)cc1,active: 10.3 µM,–
COc1cc2c3c(c1)c(C1=NC(=S)NC1=O)c(O)n3C(C)(C)C=C2C,"inconclusive: 1.84 µM [cytotoxic, full curve]",–
CC(C)CN(C(=O)CCCSc1nc2ccccc2[nH]1)c1c(N)n(Cc2ccccc2)c(=O)[nH]c1=O,"inconclusive: 8.2 µM [rising, partial curve, poor fit]",–
Cc1ccc(O)c(C(=O)c2cnn(C(=O)Cc3csc(C)n3)c2)c1,"inconclusive: 29.1 µM [cytotoxic, partial curve, poor fit]",–
O=C(NCC1OCCc2ccccc21)c1ccc(NC(=O)c2cccc(Br)c2)cc1 (centres undefined),active: 2.59 µM,–
CC1CN(Cc2ccccc2)c2nc3c(c(=O)n(C)c(=O)n3C)n2C1 (centres undefined),"inconclusive: 2.91 µM [cytotoxic, partial curve, poor fit]",–
O=C(CSc1nnnn1-c1cccnc1)Nc1ccc(OCc2ccccc2)cc1,"inconclusive: 14.6 µM [cytotoxic, partial curve, poor fit]",–
Cc1ccc2[nH]c(=O)c(CN(CCCN3CCOCC3)C(=O)NC3CCCCC3)cc2c1,"inconclusive: 18.4 µM [cytotoxic, partial curve, poor fit]",–
C=CCn1c(C)cc(C(=O)CSc2nc3ccccc3[nH]2)c1C,–,inactive: 0%
COc1ccc(/C=C/C(=O)c2ccc3c(c2)OCO3)cc1OC,"inconclusive: 9.2 µM [cytotoxic, partial curve]",–
CCOc1ccc(CCNC(=O)c2cc(-c3ccccc3)c(N3CCOCC3)s2)cc1,–,inactive: 23.1%

SMILES,Potency,"activity change, negative = cytotoxicity"
CCOC(=O)c1cnc2ccc(Cl)cc2c1NCCN(C)C,–,inactive: -3.02%
COCCNC(=O)C(=O)Nc1ccc(Br)cc1,"inconclusive: 16.4 µM [cytotoxic, partial curve]",–
O=S(=O)(c1ccc(Br)s1)N1CCc2ccccc2C1,"inconclusive: 29.1 µM [cytotoxic, single point]",–
Nc1nonc1-c1nc2ccccc2n1CC(=O)N/N=C\c1ccc(-c2ccc(Cl)cc2)o1,"inconclusive: 29.1 µM [cytotoxic, single point]",–
Cc1cccc(Nc2nc(N)c([N+](=O)[O-])c(NCc3ccccc3)n2)c1,active: 18.4 µM,–
CCOC(=O)c1c(C)[nH]c(C)c1S(=O)(=O)N1CCN(c2ccc([N+](=O)[O-])cc2)CC1,–,inactive: -11%
CCOC(=O)CSc1nc(=O)n2ccc(C)cc2n1,"inconclusive: 2.31 µM [rising, partial curve, poor fit]",–
Nc1c(C(=O)N/N=C/c2cccnc2)oc2nc(-c3ccccc3)cc(-c3ccco3)c12,–,inactive: 2.58%
CCN(CC)C(=O)c1cccc(NC(=O)CC23CC4CC(CC(C4)C2)C3)c1,"inconclusive: 13 µM [cytotoxic, partial curve]",–
COc1ccccc1NC(=O)CCN1C(=O)/C(=C/c2cc(OC)c(OC)c(OC)c2)SC1=S,"inconclusive: 1.03 µM [rising, full curve, poor fit]",–
Cc1ccc(CCNC(=O)C23CN(Cc4ccccc4)CC2C(c2cccc([N+](=O)[O-])c2)=NO3)cc1 (centres undefined),"inconclusive: 2.31 µM [rising, full curve]",–
COc1ccc(CCNC(=O)CCc2c(C)c3cc4c(C)coc4cc3oc2=O)cc1,"inconclusive: 2.06 µM [cytotoxic, full curve]",–
CC(C)(C)OC(=O)N1CCC[C@H]1c1nnc(SCc2ccc(Cl)cc2)o1,"inconclusive: 6.51 µM [cytotoxic, partial curve]",–
Cc1sc2ncnc(N3CCN(Cc4ccccc4)CC3)c2c1-c1ccc(F)cc1,active: 14.6 µM,–
O=C(Nc1ccc(S(=O)(=O)N2CCCCC2)cc1)c1ccc(CN2CCOCC2)cc1,active: 2.06 µM,–
O=C(CNCc1ccccc1)Nc1ccc(F)cc1,"inconclusive: 23.1 µM [cytotoxic, single point]",–
O=C1NC(N2CCOCC2)=N/C1=C/c1ccc2c(c1)OCO2,"inconclusive: 20.6 µM [cytotoxic, partial curve, poor fit]",–
COc1ccc(S(=O)(=O)NCc2cccs2)cc1,"inconclusive: 20.6 µM [cytotoxic, single point]",–
CNc1c(Cl)cc(C=O)cc1Cl,–,inactive: 22.5%
COc1ccc(OC)c(CCNC(=O)Cn2cccc2C(=O)c2ccccc2)c1,–,inactive: 8.34%
COc1ccccc1NC(=O)Cc1noc(CSc2nnc(C)s2)n1,"inconclusive: 7.31 µM [cytotoxic, partial curve]",–
CCc1ccc(OCC(=O)Nc2ccc(-c3cc4ccccc4oc3=O)c(OC)c2)cc1,"inconclusive: 10.3 µM [cytotoxic, partial curve]",–
Cc1ccc(C)c(N2CCN(C(=O)c3cc4sccc4n3C)CC2)c1,"inconclusive: 29.1 µM [cytotoxic, single point]",–

# Rewritten with bars between the fields: five of the compounds above.
SMILES | Potency | activity change, negative = cytotoxicity
O=C(CNCc1ccccc1)Nc1ccc(F)cc1 | inconclusive: 23.1 µM [cytotoxic, single point] | –
O=C1NC(N2CCOCC2)=N/C1=C/c1ccc2c(c1)OCO2 | inconclusive: 20.6 µM [cytotoxic, partial curve, poor fit] | –
COc1ccc(S(=O)(=O)NCc2cccs2)cc1 | inconclusive: 20.6 µM [cytotoxic, single point] | –
CNc1c(Cl)cc(C=O)cc1Cl | – | inactive: 22.5%
COc1ccc(OC)c(CCNC(=O)Cn2cccc2C(=O)c2ccccc2)c1 | – | inactive: 8.34%

# Additional entries.

SMILES,Potency,"activity change, negative = cytotoxicity"
Cc1cc(Cl)c(S(=O)(=O)N2CCSCC2)cc1OCC(=O)NC1CCCCC1,active: 3.66 µM,–
COc1ccc(C(=O)CN2CCN(S(=O)(=O)c3cccc([N+](=O)[O-])c3)CC2)cc1,"inconclusive: 29.1 µM [cytotoxic, single point]",–
Cc1nc2c(c3c1[nH]c1ccccc13)C(=O)CC(C)(C)C2,–,inactive: -15.6%
O=C(CN1CCN(S(=O)(=O)/C=C/c2ccccc2)CC1)NCC(F)(F)F,–,inactive: -11.4%
Cc1cc(S(=O)(=O)N2CCCOC2CNC(=O)C(=O)NCc2ccco2)ccc1F (centres undefined),"inconclusive: 16.4 µM [cytotoxic, partial curve]",–
COc1ccc(C(=O)NNC(=S)NC(=O)c2ccc(F)cc2)cc1Br,"inconclusive: 4.61 µM [cytotoxic, partial curve, poor fit]",–
O=C(NCc1ccccc1)C(C1CC1)n1c(-c2cccs2)nc2ccccc21 (centres undefined),"inconclusive: 7.31 µM [cytotoxic, partial curve, poor fit]",–
COc1cccc(OCC(Cn2cnc3ccccc32)OC(C)=O)c1 (centres undefined),active: 16.4 µM,–
Cc1ccc(OC(C)C(=O)Nc2ccc(F)cc2)c([N+](=O)[O-])n1 (centres undefined),–,inactive: 0.202%
CN1N=C(C(=O)N2CCc3c([nH]c4ccccc34)C2c2c(F)cccc2Cl)CCC1=O (centres undefined),"inconclusive: 29.1 µM [cytotoxic, single point]",–
CCOC(=O)COn1c(=O)c(-c2ccc(Br)cc2)[n+]([O-])c2ccccc21,"inconclusive: 32.6 µM [cytotoxic, single point]",–
O=C(NC(c1ccc(Cl)cc1)c1ccsc1)C1CCN(Cc2cccc(Cl)c2)CC1 (centres undefined),"inconclusive: 10.3 µM [cytotoxic, partial curve]",–
CCOc1ccccc1N1CCN(C(=O)Cc2ccc(S(=O)(=O)N3CCOCC3)s2)CC1,active: 23.1 µM,–
COC(=O)Nc1nn(-c2ccc(OC)cc2)c(=O)c(C#N)c1C,"inconclusive: 5.8 µM [rising, full curve]",–
Cc1ccc(C(=O)N2CC(C)SC2=Nc2cccc(S(=O)(=O)N(C)C)c2)cc1 (centres undefined),–,inactive: -1.26%
CC(C)CC(=O)NC(=S)Nc1ccc(NC(=O)c2ccco2)cc1,–,inactive: -17.1%
Fc1ccc(-c2oncc2-c2nnnn2-c2ccccc2)cc1F,–,inactive: -5.39%
CC(C)(C)NC(=O)NC(=O)COC(=O)c1nc(-c2ccccc2)n(-c2cccc(C(F)(F)F)c2)n1,"inconclusive: 29.1 µM [rising, single point]",–
COc1cc(-c2cn(S(=O)(=O)c3cccc4nsnc34)nc2N)cc(OC)c1OC,"inconclusive: 18.4 µM [cytotoxic, partial curve, poor fit]",–
CC(C)n1c(=S)[nH]c2cc(C(F)(F)F)ccc21,"inconclusive: 23.1 µM [rising, partial curve, poor fit]",–
CC(=O)c1cccc(Nc2nc(-c3ccccc3)cs2)c1,–,inactive: -6.45%
Cc1ccc(OCCn2c(=O)cnc3ccccc32)cc1,"inconclusive: 29.1 µM [cytotoxic, single point]",–
COc1ccc(N(CC(=O)Nc2ccc3c(c2)OCCO3)S(=O)(=O)c2cccc(C)c2)cc1,"inconclusive: 29.1 µM [cytotoxic, single point]",–
